Laboratory results: PubChem BioAssay AID1508597 (Cure First, 2020)
This is one part, drawn at random, of about 2,100 reagents. 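Calls flag viability under 80% in either arm, not effects specific to rucaparib; the reference for percent is not stated.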 Not given: the 100% reference.

Test: 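Survival screen with siRNA in ovarian cancer cells derived from patients, with or without rucaparib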 (primary screen)
Cell system: human ovarian carcinoma lines grown from tumours: OCI-P5x (papillary serous) and OCI-C5x (clear cell)
Knock-down reagent: siRNA pool against human genes, 1.25 pmol siRNA per well
Timing: 72 h or 96 h, depending on the cell culture
Treatment: rucaparib 20 µM (about IC30) or vehicle, present until read-out
Measured: 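Luminescent ATP-based viability assay read 72 or 96 h after transfection, depending on culture, given as normalised percent viability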
Scale: viability, normalised: higher = more viable cells remaining
Call rule: 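a well counts as a hit if its normalised viability is under 80 percent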
Calls: active = viability under 80%; inactive = viability 80% or more

| gene symbol | rucaparib or vehicle | cell line | technical replicate | viability, normalised (%) | activity call |
| --- | --- | --- | --- | --- | --- |
| HDAC6 (histone deacetylase 6) | Rucaparib | OCI-C5x (clear cell) | 1 | 44.6 | active |
| HDAC6 (histone deacetylase 6) | Rucaparib | OCI-C5x (clear cell) | 2 | 42.5 | active |
| HDAC6 (histone deacetylase 6) | Rucaparib | OCI-C5x (clear cell) | 3 | 46.8 | active |
| HDAC6 (histone deacetylase 6) | Rucaparib | OCI-P5x (serous) | 1 | 62.7 | active |
| HDAC6 (histone deacetylase 6) | Rucaparib | OCI-P5x (serous) | 2 | 67 | active |
| HDAC6 (histone deacetylase 6) | Rucaparib | OCI-P5x (serous) | 3 | 71.2 | active |
| HDAC6 (histone deacetylase 6) | Vehicle | OCI-C5x (clear cell) | 1 | 56.8 | active |
| HDAC6 (histone deacetylase 6) | Vehicle | OCI-C5x (clear cell) | 2 | 64 | active |
| HDAC6 (histone deacetylase 6) | Vehicle | OCI-C5x (clear cell) | 3 | 51.5 | active |
| HDAC6 (histone deacetylase 6) | Vehicle | OCI-P5x (serous) | 1 | 72.6 | active |
| HDAC6 (histone deacetylase 6) | Vehicle | OCI-P5x (serous) | 2 | 80.3 | inactive |
| HDAC6 (histone deacetylase 6) | Vehicle | OCI-P5x (serous) | 3 | 87.5 | inactive |
| TNK1 (tyrosine kinase non receptor 1) | Rucaparib | OCI-C5x (clear cell) | 1 | 48.3 | active |
| TNK1 (tyrosine kinase non receptor 1) | Rucaparib | OCI-C5x (clear cell) | 2 | 59.2 | active |
| TNK1 (tyrosine kinase non receptor 1) | Rucaparib | OCI-C5x (clear cell) | 3 | 37.9 | active |
| TNK1 (tyrosine kinase non receptor 1) | Rucaparib | OCI-P5x (serous) | 1 | 98.4 | inactive |
| TNK1 (tyrosine kinase non receptor 1) | Rucaparib | OCI-P5x (serous) | 2 | 88.5 | inactive |
| TNK1 (tyrosine kinase non receptor 1) | Rucaparib | OCI-P5x (serous) | 3 | 101 | inactive |
| TNK1 (tyrosine kinase non receptor 1) | Vehicle | OCI-C5x (clear cell) | 1 | 67.4 | active |
| TNK1 (tyrosine kinase non receptor 1) | Vehicle | OCI-C5x (clear cell) | 2 | 43.9 | active |
| TNK1 (tyrosine kinase non receptor 1) | Vehicle | OCI-C5x (clear cell) | 3 | 56.9 | active |
| TNK1 (tyrosine kinase non receptor 1) | Vehicle | OCI-P5x (serous) | 1 | 77 | active |
| TNK1 (tyrosine kinase non receptor 1) | Vehicle | OCI-P5x (serous) | 2 | 67 | active |
| TNK1 (tyrosine kinase non receptor 1) | Vehicle | OCI-P5x (serous) | 3 | 87.6 | inactive |
| MNAT1 (MNAT1 component of CDK activating kinase) | Rucaparib | OCI-C5x (clear cell) | 1 | 36.8 | active |
| MNAT1 (MNAT1 component of CDK activating kinase) | Rucaparib | OCI-C5x (clear cell) | 2 | 51.2 | active |
| MNAT1 (MNAT1 component of CDK activating kinase) | Rucaparib | OCI-C5x (clear cell) | 3 | 40.8 | active |
| MNAT1 (MNAT1 component of CDK activating kinase) | Rucaparib | OCI-P5x (serous) | 1 | 101 | inactive |
| MNAT1 (MNAT1 component of CDK activating kinase) | Rucaparib | OCI-P5x (serous) | 2 | 112 | inactive |
| MNAT1 (MNAT1 component of CDK activating kinase) | Rucaparib | OCI-P5x (serous) | 3 | 90.4 | inactive |
| MNAT1 (MNAT1 component of CDK activating kinase) | Vehicle | OCI-C5x (clear cell) | 1 | 38.2 | active |
| MNAT1 (MNAT1 component of CDK activating kinase) | Vehicle | OCI-C5x (clear cell) | 2 | 46.1 | active |
| MNAT1 (MNAT1 component of CDK activating kinase) | Vehicle | OCI-C5x (clear cell) | 3 | 50.6 | active |
| MNAT1 (MNAT1 component of CDK activating kinase) | Vehicle | OCI-P5x (serous) | 1 | 79.9 | active |
| MNAT1 (MNAT1 component of CDK activating kinase) | Vehicle | OCI-P5x (serous) | 2 | 88.7 | inactive |
| MNAT1 (MNAT1 component of CDK activating kinase) | Vehicle | OCI-P5x (serous) | 3 | 85.7 | inactive |
| EEF2K (eukaryotic elongation factor 2 kinase) | Rucaparib | OCI-C5x (clear cell) | 1 | 45.4 | active |
| EEF2K (eukaryotic elongation factor 2 kinase) | Rucaparib | OCI-C5x (clear cell) | 2 | 64 | active |
| EEF2K (eukaryotic elongation factor 2 kinase) | Rucaparib | OCI-C5x (clear cell) | 3 | 74 | active |
| EEF2K (eukaryotic elongation factor 2 kinase) | Rucaparib | OCI-P5x (serous) | 1 | 78.6 | active |
| EEF2K (eukaryotic elongation factor 2 kinase) | Rucaparib | OCI-P5x (serous) | 2 | 78 | active |
| EEF2K (eukaryotic elongation factor 2 kinase) | Rucaparib | OCI-P5x (serous) | 3 | 50.2 | active |
| EEF2K (eukaryotic elongation factor 2 kinase) | Vehicle | OCI-C5x (clear cell) | 1 | 63.4 | active |
| EEF2K (eukaryotic elongation factor 2 kinase) | Vehicle | OCI-C5x (clear cell) | 2 | 51.2 | active |
| EEF2K (eukaryotic elongation factor 2 kinase) | Vehicle | OCI-C5x (clear cell) | 3 | 63.5 | active |
| EEF2K (eukaryotic elongation factor 2 kinase) | Vehicle | OCI-P5x (serous) | 1 | 51.8 | active |
| EEF2K (eukaryotic elongation factor 2 kinase) | Vehicle | OCI-P5x (serous) | 2 | 75.6 | active |
| EEF2K (eukaryotic elongation factor 2 kinase) | Vehicle | OCI-P5x (serous) | 3 | 43.5 | active |
| LY6E (lymphocyte antigen 6 family member E) | Rucaparib | OCI-C5x (clear cell) | 1 | 49.6 | active |
| LY6E (lymphocyte antigen 6 family member E) | Rucaparib | OCI-C5x (clear cell) | 2 | 37.9 | active |
| LY6E (lymphocyte antigen 6 family member E) | Rucaparib | OCI-C5x (clear cell) | 3 | 49.5 | active |
| LY6E (lymphocyte antigen 6 family member E) | Rucaparib | OCI-P5x (serous) | 1 | 53.4 | active |
| LY6E (lymphocyte antigen 6 family member E) | Rucaparib | OCI-P5x (serous) | 2 | 71.1 | active |
| LY6E (lymphocyte antigen 6 family member E) | Rucaparib | OCI-P5x (serous) | 3 | 62.8 | active |
| LY6E (lymphocyte antigen 6 family member E) | Vehicle | OCI-C5x (clear cell) | 1 | 63.4 | active |
| LY6E (lymphocyte antigen 6 family member E) | Vehicle | OCI-C5x (clear cell) | 2 | 70.1 | active |
| LY6E (lymphocyte antigen 6 family member E) | Vehicle | OCI-C5x (clear cell) | 3 | 54.5 | active |
| LY6E (lymphocyte antigen 6 family member E) | Vehicle | OCI-P5x (serous) | 1 | 85.1 | inactive |
| LY6E (lymphocyte antigen 6 family member E) | Vehicle | OCI-P5x (serous) | 2 | 81.8 | inactive |
| LY6E (lymphocyte antigen 6 family member E) | Vehicle | OCI-P5x (serous) | 3 | 82.6 | inactive |
